Results are given in words; binding and its absence hold for the method and conditions named. Some binding calls cover weakened binding; strength is not graded here.

By UniProt entry, the sequences of proteins in these tests, tags left out.
UniProt Q60974: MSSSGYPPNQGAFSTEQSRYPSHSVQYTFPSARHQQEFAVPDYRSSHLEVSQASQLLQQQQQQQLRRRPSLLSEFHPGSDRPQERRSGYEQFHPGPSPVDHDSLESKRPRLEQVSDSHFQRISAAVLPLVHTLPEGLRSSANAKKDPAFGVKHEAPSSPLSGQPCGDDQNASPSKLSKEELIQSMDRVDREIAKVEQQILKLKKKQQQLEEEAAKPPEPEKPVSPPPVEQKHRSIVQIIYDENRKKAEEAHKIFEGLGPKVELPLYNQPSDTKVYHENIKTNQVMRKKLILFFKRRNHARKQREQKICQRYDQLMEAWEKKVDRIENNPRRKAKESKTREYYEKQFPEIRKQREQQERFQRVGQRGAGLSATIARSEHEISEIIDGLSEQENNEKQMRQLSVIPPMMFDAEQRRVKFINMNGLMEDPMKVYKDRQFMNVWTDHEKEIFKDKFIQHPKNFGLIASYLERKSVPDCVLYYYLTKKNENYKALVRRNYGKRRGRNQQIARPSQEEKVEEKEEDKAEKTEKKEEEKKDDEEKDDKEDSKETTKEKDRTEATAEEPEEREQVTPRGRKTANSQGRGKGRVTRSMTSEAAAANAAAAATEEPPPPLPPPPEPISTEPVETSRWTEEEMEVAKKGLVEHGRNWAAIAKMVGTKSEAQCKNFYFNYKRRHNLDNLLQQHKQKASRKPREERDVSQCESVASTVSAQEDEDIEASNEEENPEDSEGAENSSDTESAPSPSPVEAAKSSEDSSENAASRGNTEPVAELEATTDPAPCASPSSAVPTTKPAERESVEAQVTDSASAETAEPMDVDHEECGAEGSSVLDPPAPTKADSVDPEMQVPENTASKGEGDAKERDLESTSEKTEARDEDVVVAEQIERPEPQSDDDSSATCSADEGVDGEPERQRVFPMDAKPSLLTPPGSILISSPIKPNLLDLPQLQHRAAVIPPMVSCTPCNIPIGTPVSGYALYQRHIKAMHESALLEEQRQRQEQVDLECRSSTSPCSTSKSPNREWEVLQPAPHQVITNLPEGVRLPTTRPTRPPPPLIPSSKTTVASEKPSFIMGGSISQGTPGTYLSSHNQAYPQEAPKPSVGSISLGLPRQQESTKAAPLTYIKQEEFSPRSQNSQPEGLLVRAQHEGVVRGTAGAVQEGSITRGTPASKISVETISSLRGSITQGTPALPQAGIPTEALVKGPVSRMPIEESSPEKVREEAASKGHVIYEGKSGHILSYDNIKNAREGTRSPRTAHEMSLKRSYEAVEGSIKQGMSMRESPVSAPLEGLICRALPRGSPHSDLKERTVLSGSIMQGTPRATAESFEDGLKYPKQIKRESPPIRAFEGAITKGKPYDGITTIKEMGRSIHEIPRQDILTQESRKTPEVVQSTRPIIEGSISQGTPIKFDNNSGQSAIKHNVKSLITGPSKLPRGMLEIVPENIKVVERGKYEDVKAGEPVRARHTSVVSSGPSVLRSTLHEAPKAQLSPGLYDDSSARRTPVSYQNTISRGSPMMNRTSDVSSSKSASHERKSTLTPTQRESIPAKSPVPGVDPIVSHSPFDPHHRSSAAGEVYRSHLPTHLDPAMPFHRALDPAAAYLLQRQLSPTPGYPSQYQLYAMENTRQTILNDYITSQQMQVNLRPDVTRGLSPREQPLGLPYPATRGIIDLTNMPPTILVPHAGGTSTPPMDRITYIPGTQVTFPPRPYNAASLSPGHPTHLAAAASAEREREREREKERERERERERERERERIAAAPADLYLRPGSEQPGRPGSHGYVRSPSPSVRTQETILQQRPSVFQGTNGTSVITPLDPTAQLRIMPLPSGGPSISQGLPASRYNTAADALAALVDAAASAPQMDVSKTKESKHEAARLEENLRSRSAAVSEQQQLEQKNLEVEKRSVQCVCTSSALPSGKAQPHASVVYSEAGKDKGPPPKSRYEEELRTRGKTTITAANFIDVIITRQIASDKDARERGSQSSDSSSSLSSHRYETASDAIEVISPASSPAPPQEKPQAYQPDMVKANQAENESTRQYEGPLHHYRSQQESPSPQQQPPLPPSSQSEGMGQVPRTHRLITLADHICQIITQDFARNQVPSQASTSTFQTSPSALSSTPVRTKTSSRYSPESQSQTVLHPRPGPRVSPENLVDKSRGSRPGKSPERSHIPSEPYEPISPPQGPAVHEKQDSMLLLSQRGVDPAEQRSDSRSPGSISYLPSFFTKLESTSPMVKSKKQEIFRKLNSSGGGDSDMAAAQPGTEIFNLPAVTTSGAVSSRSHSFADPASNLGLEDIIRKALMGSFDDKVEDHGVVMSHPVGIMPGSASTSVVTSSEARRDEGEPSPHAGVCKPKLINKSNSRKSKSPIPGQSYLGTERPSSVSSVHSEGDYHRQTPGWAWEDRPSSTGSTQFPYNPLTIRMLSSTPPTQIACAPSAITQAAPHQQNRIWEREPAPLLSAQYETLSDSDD

This assay has as its target T1, thyroid hormone receptor α1 (TRα1) (mouse (endogenous in bone marrow)) (UniProt P63058).
T1 sequence: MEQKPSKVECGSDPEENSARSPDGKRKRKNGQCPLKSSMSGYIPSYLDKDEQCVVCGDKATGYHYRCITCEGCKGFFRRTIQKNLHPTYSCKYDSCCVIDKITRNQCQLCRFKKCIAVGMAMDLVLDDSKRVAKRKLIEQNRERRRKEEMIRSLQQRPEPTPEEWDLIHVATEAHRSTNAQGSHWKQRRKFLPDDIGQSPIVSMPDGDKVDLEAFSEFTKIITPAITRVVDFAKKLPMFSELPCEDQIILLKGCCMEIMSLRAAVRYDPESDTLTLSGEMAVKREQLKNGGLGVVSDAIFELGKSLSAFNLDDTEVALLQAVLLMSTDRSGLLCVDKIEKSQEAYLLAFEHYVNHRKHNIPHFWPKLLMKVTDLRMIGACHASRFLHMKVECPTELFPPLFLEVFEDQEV
The experiment in a line: chromatin immunoprecipitation (ChIP); bone marrow cells of WT and mutant mice fixed in 1% formaldehyde, sheared, immunoprecipitated overnight at 4 °C with anti-NCOR1 (ab24552) or anti-HDAC3 antibody or IgG; qPCR of the TRE2 fragment upstream of Gata1; percentage of the input. In general terms: Real-time PCR tracks product formation cycle by cycle.

As to “nuclear receptor corepressor 1 (NCOR1) (from UniProt Q60974 1-2453)”, the binding entry is recorded as “binds weakly”.

Source of the values: publication PMC5741760.
